This passage reports binding results from article PMC6730887, “FKBP51 and FKBP12.6—Novel and tight interactors of Glomulin” (PLoS ONE, 2019).

Amino acid sequences for entries named in this document (tags omitted).
UniProt P68106: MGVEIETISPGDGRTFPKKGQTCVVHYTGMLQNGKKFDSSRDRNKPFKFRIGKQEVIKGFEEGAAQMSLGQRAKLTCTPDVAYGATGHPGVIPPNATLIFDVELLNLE

Assay [1] has as its target T1, GST-Glmn (Glomulin) (UniProt Q92990).
T1 sequence: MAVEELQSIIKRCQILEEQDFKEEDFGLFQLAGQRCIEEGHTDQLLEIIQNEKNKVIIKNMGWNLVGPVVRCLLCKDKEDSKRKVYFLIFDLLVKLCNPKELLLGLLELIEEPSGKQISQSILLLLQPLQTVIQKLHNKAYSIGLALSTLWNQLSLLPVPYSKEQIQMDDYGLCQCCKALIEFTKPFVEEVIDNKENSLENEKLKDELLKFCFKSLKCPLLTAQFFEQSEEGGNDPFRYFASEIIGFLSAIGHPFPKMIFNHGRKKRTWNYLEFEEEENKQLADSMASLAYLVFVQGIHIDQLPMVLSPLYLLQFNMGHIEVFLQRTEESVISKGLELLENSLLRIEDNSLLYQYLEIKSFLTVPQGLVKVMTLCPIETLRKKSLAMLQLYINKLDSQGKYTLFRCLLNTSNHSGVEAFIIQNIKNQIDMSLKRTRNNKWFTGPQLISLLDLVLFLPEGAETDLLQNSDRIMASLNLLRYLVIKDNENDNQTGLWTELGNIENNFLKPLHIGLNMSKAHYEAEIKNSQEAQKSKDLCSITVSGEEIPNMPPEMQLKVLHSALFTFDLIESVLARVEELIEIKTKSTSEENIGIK
Description: AlphaScreen or HTRF; competitive HTRF: unlabelled FKBP titrated against 30 nM FKBP51FK1-5-MF and 30 nM GST-Glmn with Anti GST-Tb cryptate; 20 mM HEPES, 5% glycerol, 20 mM NaCl, 10 mM DTT, pH 8.0; room temperature, 1 h; both purified.

Assay [2] deals with T1, GST-Glmn (Glomulin). The assay is described as above. This is another data set of the same source.

Read-outs that look alike come from different tables or passages of the source. These are yes or no findings as the source states them, for the method shown. Some binding calls cover weakened binding; strength is not graded here. Tags and fused reporters may be left off the sequences shown.

As to His-FKBP12 (from UniProt P62942 1-108), the binding entry in assay [1] is recorded as “binds weakly”. With “His-FKBP12.6 (from UniProt P68106 1-108)”, the binding entry in assay [1] is given as “binds”.

B1: His-FKBP51FK1 (1-140) (domain or fragment)
chain: MTTDEGAKNNEESPTATVAEQGEDITSKKDRGVLKIVKRVGNGEETPMIGDKVYVHYKGKLSNGKKFDSSHDRNEPFVFSLGKGQVIKAWDIGVATMKKGEICHLLCKPEYAYGSAGSLPKIPSNATLFFEIELLDFKGE
B1: the binding entry in assay [2] is given as “binds”.

B2: His-FKBP51FK1 (aa16-140) (domain or fragment)
chain: ATVAEQGEDITSKKDRGVLKIVKRVGNGEETPMIGDKVYVHYKGKLSNGKKFDSSHDRNEPFVFSLGKGQVIKAWDIGVATMKKGEICHLLCKPEYAYGSAGSLPKIPSNATLFFEIELLDFKGE
In the case of B2, the binding result in assay [2] is “binds”.
